In the RNAGym collection of RNA variant scans (doi:10.1126/science.aae0568):
Variants at the floor of the assay are shown more often than the library holds them.

B1: tRNA (parent)
chain: GUUCCGUUGGCGUAAUGGUAACGCGUCUCCCUCCUAAGGAGAAGACUGCGGGUUCGAGUCCCGUACGGAACG

Variants of: B1
Test: yeast fitness relative to wild type (ratio to wild type); higher = fitter; tRNA-Arg(CCU), competitive growth, 37 C, YPD
Method in brief: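 Variants of the tRNA-Arg(CCU) gene were chemically synthesised with a 3% per-site mutation rate across 69 sites and placed at the native genomic locus in Saccharomyces cerevisiae. Six parallel replicates of the pooled strains were competed in YPD at 37°C for 24 hours, and gene amplicons from the start and end populations were read by 100-nucleotide paired-end sequencing. Darwinian fitness relative to wild type was derived from changes in genotype frequencies. Genotypes required ≥ 100 starting reads, and estimates < 0.5 were set to 0.5.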

G10C U28A C46G G50C and C49G G50A G68C A69G cannot be ordered by yeast fitness: no more than 0.5 for the first, no more than 0.5 for the second.

First: G10C C34A A57U
Second: C11U C31G
The yeast fitness of the first is lower: 0.577 for the first, 0.791 for the second.

U2G C27U A42U C46G and U32A C49A G68A cannot be ordered by yeast fitness: no more than 0.5 for the first, no more than 0.5 for the second.

C11A U16A C29G A42C G51A A70U and C22G C46G C62U C66U cannot be ordered by yeast fitness: no more than 0.5 for the first, no more than 0.5 for the second.

Going from C4U U32C C34U G38A C66A A69U to U28G C61A, the yeast fitness rises from no more than 0.5 to 0.561.

C24A C29U G63C and C29G G38A G44A C46U C62G cannot be ordered by yeast fitness: no more than 0.5 for the first, no more than 0.5 for the second.

C5G C34U A37G C62G and A20U C27G C29A G58A cannot be ordered by yeast fitness: no more than 0.5 for the first, no more than 0.5 for the second.

Compared with U7A A14C G25A C30G, G17A A37C G58A is higher in yeast fitness: no more than 0.5 for the first, 0.551 for the second.

Compared with U3A U13C G68A, C11G A36U C46G C62A A69C is lower in yeast fitness: 0.528 for the first, no more than 0.5 for the second.

A36C C61A G63C and U13G C22U G25A A45C C61U cannot be ordered by yeast fitness: no more than 0.5 for the first, no more than 0.5 for the second.

U8A G18A C27A A37C G56A and G10U G17A C31G cannot be ordered by yeast fitness: no more than 0.5 for the first, no more than 0.5 for the second.

Going from U8G A20G A37G A43G to A37G A43G, the yeast fitness rises from no more than 0.5 to 0.734.

G25C C29U C34G and C11U C29U C31A cannot be ordered by yeast fitness: no more than 0.5 for the first, no more than 0.5 for the second.

Compared with U3C G56A A69C, C22A G41C A65C is lower in yeast fitness: 0.802 for the first, no more than 0.5 for the second.

G17C A40U G63U C66G and A20U G48A G50A A57U cannot be ordered by yeast fitness: no more than 0.5 for the first, no more than 0.5 for the second.

Going from G6A A14C A43C C60G to A20G A36G, the yeast fitness rises from no more than 0.5 to 1.01.

A14G C61A G67A and A21G G25A A40U G52C C55A C66G cannot be ordered by yeast fitness: no more than 0.5 for the first, no more than 0.5 for the second.

A21G C27A C33G and U8A A14C C49G G63C cannot be ordered by yeast fitness: no more than 0.5 for the first, no more than 0.5 for the second.

U26G A57G G68C and U32G C34A G38A A70G cannot be ordered by yeast fitness: no more than 0.5 for the first, no more than 0.5 for the second.

C29G U32C C62G and C5A A14G A15G C22G A37U cannot be ordered by yeast fitness: no more than 0.5 for the first, no more than 0.5 for the second.

Compared with C4G C24A G44A A45C C49U C61G, A42G C55U is higher in yeast fitness: no more than 0.5 for the first, 0.688 for the second.

U3A C11U U13C C31A C46A A57C and G18A G50A G68C cannot be ordered by yeast fitness: no more than 0.5 for the first, no more than 0.5 for the second.

First: C22U C30U U47A
Second: C4U C33U
The yeast fitness of the first is lower: no more than 0.5 for the first, 0.789 for the second.

Compared with A40U C55A, A14G C22U C34U is lower in yeast fitness: 0.584 for the first, no more than 0.5 for the second.

A40C G50A C55A G58A and U19C A43G G44C A45C A65C cannot be ordered by yeast fitness: no more than 0.5 for the first, no more than 0.5 for the second.

Compared with A15C G23A C24G C46G, C5U A14C is higher in yeast fitness: no more than 0.5 for the first, 0.593 for the second.

C34U U35G and U2A C11G U13A G41A cannot be ordered by yeast fitness: no more than 0.5 for the first, no more than 0.5 for the second.

First: A42C G48C G67A
Second: G18A C46U G63C
The yeast fitness of the first is higher: 0.574 for the first, no more than 0.5 for the second.

Going from U8A C31G G68A to G12C C29G, the yeast fitness rises from no more than 0.5 to 0.58.

C11U U32G A37G A45G C55A and G6C U13G G18A C55U cannot be ordered by yeast fitness: no more than 0.5 for the first, no more than 0.5 for the second.

G9C G39C A40G and G9C A14G G67C cannot be ordered by yeast fitness: no more than 0.5 for the first, no more than 0.5 for the second.

A20U C24G C31A A65C and A15G A45U G48A C55A G63A cannot be ordered by yeast fitness: no more than 0.5 for the first, no more than 0.5 for the second.

C29G C30G A57U G58A A70G and G10A C11U A15G C30U U47C C61G cannot be ordered by yeast fitness: no more than 0.5 for the first, no more than 0.5 for the second.

Compared with C11G C30U U35C C46G G58C, C30U G52A is higher in yeast fitness: no more than 0.5 for the first, 0.785 for the second.

First: A14C G18A C62U
Second: G44A G63A
The yeast fitness of the first is lower: no more than 0.5 for the first, 0.97 for the second.

C11U A15G G41A U53G and C4G A14C C24G U53C C62G cannot be ordered by yeast fitness: no more than 0.5 for the first, no more than 0.5 for the second.

Going from C49U A70C to A21U C33G A42G G44A G63A U64C, the yeast fitness falls from 1.02 to no more than 0.5.

U2A A43G U64A and A14C C30A C31G A65U cannot be ordered by yeast fitness: no more than 0.5 for the first, no more than 0.5 for the second.

G18C C29G A36C G44C G50A C66A and G9C G12A U35C C49U cannot be ordered by yeast fitness: no more than 0.5 for the first, no more than 0.5 for the second.

Going from G6A A14G C24U A65C to U7G G25A C49G, the yeast fitness rises from no more than 0.5 to 0.542.

Compared with C66U G68C, A14G G48A A57G A69U is lower in yeast fitness: 0.779 for the first, no more than 0.5 for the second.

Variant U16C C27A A36G A70U has a yeast fitness of no more than 0.5.
